We go through 32 molecules from the supplement of paper PMC10735217.

This is one part of the list. This data set is noisy: repeats of one test often differ as much as different tests do.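 In a drug-repurposing library screen, luminescence reads luciferase driven by eight TEAD-binding elements, stably integrated into human kidney-derived cells. Compounds scoring over five robust Z scores above the plate mean are called hits.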

The test system of this assay is HEK293A TEAD-LUC reporter. Put plainly: TEAD-luciferase reporter activity (YAP activation), robust Z score vs plate; higher = stronger YAP/TEAD activation. Conditions: 24 h.

On to `CS(=O)(=O)c1ccc2c(c1)N(CCCN1CCC(C(N)=O)CC1)c1ccccc1S2`, for which the TEAD-luciferase reporter activity (compound concentration: 200 nM) is inactive: -0.0361, the TEAD-luciferase reporter activity (compound concentration: 2 uM) was inactive: -1.58 and the TEAD-luciferase reporter activity (compound concentration: 10 uM) was inactive: 0.636.
Regarding `CC(C)n1c(=O)c(C(=O)NCCCN2CCCCC2)c(O)c2ccsc21`, the TEAD-luciferase reporter activity was inactive: -0.838 (compound concentration: 200 nM), inactive: 1.76 (compound concentration: 2 uM) and inactive: 1.06 (compound concentration: 10 uM).
For the molecule `Cc1cc(OCC(=O)O)cc(C)c1Cc1ccc(O)c(C(C)C)c1` [sobetirome], the TEAD-luciferase reporter activity (compound concentration: 200 nM) is inactive: -1.18, the TEAD-luciferase reporter activity (compound concentration: 2 uM) was inactive: -1.36 and the TEAD-luciferase reporter activity (compound concentration: 10 uM) was inactive: 2.73.
The corresponding values for `Cn1c(N2CCCCS2(=O)=O)nc(C(=O)NCc2ccc(F)cc2)c(O)c1=O` are inactive: 0.812, inactive: -0.78 and inactive: 0.0466.
In the case of `COCC1=C(C(=O)OC)[C@H](c2ccc(F)c(F)c2)N(C(=O)NCCCN2CCC(c3ccccn3)CC2)C(=O)N1`, the TEAD-luciferase reporter activity reads like this: (compound concentration: 200 nM) inactive: -2.2; (compound concentration: 2 uM) inactive: 0.285; (compound concentration: 10 uM) inactive: 1.96.
As to `C[C@@H]1CN(C[C@H](c2cccc(OC(F)(F)F)c2)C2(O)CCCCC2)C[C@H](C)N1`, the TEAD-luciferase reporter activity runs as follows: (compound concentration: 200 nM) inactive: -0.512; (compound concentration: 2 uM) inactive: -2.19; (compound concentration: 10 uM) inactive: -0.963.
As to `O=C(Nc1ncc(SCCN2CCCC2)s1)[C@]1(c2ccc(S(=O)(=O)C3CC3)cc2)C[C@H]1C1CCCCC1`, the TEAD-luciferase reporter activity by setting is: (compound concentration: 200 nM) inactive: -0.708; (compound concentration: 2 uM) inactive: -0.831; (compound concentration: 10 uM) inactive: -0.557.
In the case of `CCOc1ccc(-n2c(N)nc3cc(C(F)(F)F)ccc32)cc1`, the TEAD-luciferase reporter activity runs as follows: (compound concentration: 200 nM) inactive: -0.483; (compound concentration: 2 uM) inactive: -0.302; (compound concentration: 10 uM) inactive: 0.282.
For `CNC(=O)NCc1ccccc1-c1ccc(CN2C(=O)C(NC(=O)C(C)(C)N)CCc3ccccc32)cc1` (stereo unspecified), the TEAD-luciferase reporter activity is inactive: -0.64 (compound concentration: 200 nM), inactive: 0.314 (compound concentration: 2 uM) and inactive: 1.24 (compound concentration: 10 uM).
In the case of `CCNCC(O)COc1ccccc1C1CC2CCC1C2` (stereo unspecified), the TEAD-luciferase reporter activity runs as follows: (compound concentration: 200 nM) inactive: -0.24; (compound concentration: 2 uM) inactive: -0.126; (compound concentration: 10 uM) inactive: -0.404.
The corresponding values for `CCC(O)CC1CCC(C(C)C(=O)OC(C)CC2CCC(C(C)C(=O)O)O2)O1` (stereo unspecified) are inactive: -1.79, inactive: -1.54 and inactive: 1.26.
The matching figures for `CC1(C)Oc2ccc(C#N)cc2[C@@H](OC2=CC(=O)CC2)[C@@H]1O`: inactive: 0.116, inactive: 0.247 and inactive: -0.201.
For the molecule `COC(=O)C1=C(C)NC(C)=C(C(=O)OCC(C)=O)C1c1ccccc1[N+](=O)[O-]` (stereo unspecified), the TEAD-luciferase reporter activity reads like this: (compound concentration: 200 nM) inactive: -0.609; (compound concentration: 2 uM) inactive: -1.3; (compound concentration: 10 uM) inactive: -0.627.
Turning to `CN[C@@H](C)C(=O)N[C@H](C(=O)N1CCC[C@H]1CN(CCc1ccccc1)C(=O)C(F)(F)F)[C@@H](C)OCC#CC#CCO[C@H](C)[C@H](NC(=O)[C@H](C)NC)C(=O)N1CCC[C@H]1CN(CCc1ccccc1)C(=O)C(F)(F)F`, the TEAD-luciferase reporter activity is inactive: -0.00457 (compound concentration: 200 nM), inactive: -1.39 (compound concentration: 2 uM) and inactive: -1.19 (compound concentration: 10 uM).
In the case of `CCOP(=O)(Cc1ccc(-c2nc3ccccc3s2)cc1)OCC` [Fostedil], the TEAD-luciferase reporter activity reads like this: (compound concentration: 200 nM) active: 8.75; (compound concentration: 2 uM) active: 6.84; (compound concentration: 10 uM) active: 8.88.
Take `CS(=O)(=O)N1CCN(Cc2cc3nc(-c4cccc5[nH]ncc45)nc(N4CCOCC4)c3s2)CC1` [pictilisib]: the TEAD-luciferase reporter activity is inactive: -1.37 (compound concentration: 200 nM), inactive: 0.668 (compound concentration: 2 uM) and inactive: 3.46 (compound concentration: 10 uM).
Consider `CCc1cccc2c3c([nH]c12)C(CC)(CC(=O)O)OCC3` (stereo unspecified), for which the TEAD-luciferase reporter activity runs as follows: (compound concentration: 200 nM) inactive: -0.677; (compound concentration: 10 uM) inactive: -0.392.
In the case of `CCc1cccc2c3c([nH]c12)C(CC)(CC(=O)O)OCC3` [(R)-etodolac], the TEAD-luciferase reporter activity (compound concentration: 2 uM) was inactive: -0.793.
For the molecule `NC(=O)[C@@H]1CC[C@@H]2CN1C(=O)N2OS(=O)(=O)O` [Avibactam sodium], the TEAD-luciferase reporter activity was inactive: -0.598 (compound concentration: 200 nM), inactive: 0.139 (compound concentration: 2 uM) and inactive: -0.00938 (compound concentration: 10 uM).
As to `COc1ccc(-n2nnnc2C(F)(F)F)cc1CN[C@H]1CCCN[C@H]1c1ccccc1`, the TEAD-luciferase reporter activity reads like this: (compound concentration: 200 nM) inactive: 0.651; (compound concentration: 2 uM) inactive: 0.79; (compound concentration: 10 uM) inactive: -0.758.
Take `CCCN(CCC)S(=O)(=O)c1ccc(C(=O)O)cc1` [probenecid57-66-9]: the TEAD-luciferase reporter activity is inactive: -0.365 (compound concentration: 200 nM) and inactive: -0.899 (compound concentration: 10 uM).
Take `CCCN(CCC)S(=O)(=O)c1ccc(C(=O)O)cc1` [Probenecid]: the TEAD-luciferase reporter activity (compound concentration: 2 uM) is inactive: -2.94.
On to `C[C@H](NC(=O)Cc1ccc(Cl)cc1)C(=O)Nc1ccc(C2S/C(=N\c3cccc(F)c3)N(Cc3ccco3)C2=O)cc1` (stereo partly specified), for which the TEAD-luciferase reporter activity was inactive: -0.251 (compound concentration: 200 nM), inactive: 0.0756 (compound concentration: 2 uM) and inactive: -0.604 (compound concentration: 10 uM).
Regarding `COc1nc(N)nc2[nH]cnc12`, the TEAD-luciferase reporter activity (compound concentration: 200 nM) is inactive: 3.47, the TEAD-luciferase reporter activity (compound concentration: 2 uM) is inactive: -1.27 and the TEAD-luciferase reporter activity (compound concentration: 10 uM) is inactive: 0.477.
The corresponding values for `Cc1ccc2c(c1)CCCN2C(=O)C1CCc2[nH]c(C)nc2C1` (stereo unspecified) are inactive: -0.299, inactive: -1.42 and inactive: -2.25.
Turning to `CCOC(=O)OC(C)OC(=O)[C@@H]1N2C(=O)[C@@H](NC(=O)[C@H](N)c3ccccc3)[C@H]2SC1(C)C` (stereo partly specified) [bacampicillin], the TEAD-luciferase reporter activity (compound concentration: 2 uM) was inactive: -2.31.
On to `CCOC(=O)OC(C)OC(=O)[C@@H]1N2C(=O)[C@@H](NC(=O)[C@H](N)c3ccccc3)[C@H]2SC1(C)C` (stereo partly specified), for which the TEAD-luciferase reporter activity is inactive: -0.994 (compound concentration: 200 nM) and active: 6.4 (compound concentration: 10 uM).
Regarding `CC1=C(C)C(=O)C(CCCCCCCCCC[P+](c2ccccc2)(c2ccccc2)c2ccccc2)=CC1=O`, the TEAD-luciferase reporter activity runs as follows: (compound concentration: 200 nM) inactive: 2.42; (compound concentration: 2 uM) inactive: 0.737; (compound concentration: 10 uM) inactive: -0.058.
Turning to `COc1ccc(C(=O)N2CCC(N3Cc4ccccc4C3=O)CC2)cc1`, the TEAD-luciferase reporter activity (compound concentration: 200 nM) is inactive: -1.98 and the TEAD-luciferase reporter activity (compound concentration: 10 uM) was inactive: 0.037.
On to `OC[C@H]1O[C@H](O)[C@H](O)[C@@H](O)C1O[C@H]1O[C@H](COC2O[C@H](CO)[C@@H](O)[C@H](O)[C@H]2O)C(O[C@H]2O[C@H](CO)[C@@H](O)[C@H](O)[C@H]2O)[C@H](O)[C@H]1O` (stereo partly specified), for which the TEAD-luciferase reporter activity runs as follows: (compound concentration: 200 nM) inactive: -0.902; (compound concentration: 2 uM) inactive: 0.507; (compound concentration: 10 uM) inactive: 0.656.
The matching figures for `O=C(Cc1cccc(OC(F)(F)F)c1)Nc1ccc(CCCCc2nnc(NC(=O)Cc3ccccn3)s2)nn1`: inactive: -1.57, inactive: -1.62 and inactive: -1.83.
As for `CC(C)C[C@@H](NC(=O)[C@H](N)CCCCN)C(=O)N[C@H](Cc1ccccc1)C(=O)N[C@H](CCCNC(=N)N)C(=O)N[C@H](Cc1cccc2ccccc12)C(=O)N[C@H](CCC(N)=O)C(=O)N[C@H](C)C(=O)N[C@H](CCCCN)C(=O)N[C@H](Cc1cccc2ccccc12)C(=O)O`, the TEAD-luciferase reporter activity runs as follows: (compound concentration: 200 nM) inactive: -1.39; (compound concentration: 2 uM) inactive: 1.8; (compound concentration: 10 uM) inactive: -0.277.
